Data as given in PubChem BioAssay AID652057 (Broad Institute, 2013).
The whole screen tested about 1,400 compounds, of which about 1,000 (71%) were called active. How the calls were made is not given here. So high a share suggests a set chosen from earlier hits. Only a part is listed here, and it is no random draw. Measured potencies and affinities stand elsewhere.

Experiment: blockers of HIV-1 envelope-mediated cell-cell fusion – cherry-pick, dose response (AID 652057)
Conditions: HeLa-JRFL Env/CEM21 cell fusion, luciferase; at 35 µM (top of the series)

Compound | activity change, negative = inhibition
O=C(Nc1cccc(OC(=O)N2CCOCC2)c1)N1CCOCC1 | inactive: -16.4%
CC(C)NS(=O)(=O)c1ccc(OCC(=O)N2CCN(Cc3ccc4c(c3)OCO4)CC2)c(Cl)c1 | inactive: -14.8%
CCC(=NCCc1c[nH]c2ccccc12)c1c(O)n(C)c(=O)n(C)c1=O | inactive: 12.6%
Cn1nc(-c2ccc(OCC(=O)N3CCN(Cc4ccccc4)CC3)cc2)c2ccccc2c1=O | inactive: -18.5%
CCC(=NCc1ccc(F)cc1)c1c(O)n(C)c(=O)n(C)c1=O | inactive: -35.1%
